Source: PMC4777826, “Crystal Structure of the CTP1L Endolysin Reveals How Its Activity Is Regulated by a Secondary Translation Product*^([image sbox.jpg])” (The Journal of Biological Chemistry, 2015)

Target: T1, CD27L endolysin, full-length (wild type) (bacteriophage (targets Clostridium difficile)) (UniProt B6SBV8)
T1 sequence: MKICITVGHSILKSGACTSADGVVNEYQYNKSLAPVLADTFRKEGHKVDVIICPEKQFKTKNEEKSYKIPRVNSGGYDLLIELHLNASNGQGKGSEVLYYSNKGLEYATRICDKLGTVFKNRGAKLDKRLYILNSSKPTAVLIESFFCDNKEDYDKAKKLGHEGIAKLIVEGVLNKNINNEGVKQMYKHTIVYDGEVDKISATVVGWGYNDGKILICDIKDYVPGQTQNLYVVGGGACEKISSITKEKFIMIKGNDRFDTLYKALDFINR
Assay: native MS; nano-ESI of each purified sample by itself (wild-type gene products, CBDHis, RBSKO mutants), 150 mM ammonium acetate pH 7.4; both purified

## truncated C-terminal domain (CBD) of CD27L (domain or fragment)
  binding: binds

These are yes or no findings as the source states them, for the method shown. Binding can be weak; no strength is given.
